These are yes or no findings as the source states them, for the method shown. Binding seen in cells or lysates may run through a third protein. Some binding calls cover weakened binding; strength is not graded here. For some assays here: Sequences can lack the tags named with a protein.

Sequences of proteins named here, by UniProt entry; tags and fusion partners are left off.
UniProt Q96LD4: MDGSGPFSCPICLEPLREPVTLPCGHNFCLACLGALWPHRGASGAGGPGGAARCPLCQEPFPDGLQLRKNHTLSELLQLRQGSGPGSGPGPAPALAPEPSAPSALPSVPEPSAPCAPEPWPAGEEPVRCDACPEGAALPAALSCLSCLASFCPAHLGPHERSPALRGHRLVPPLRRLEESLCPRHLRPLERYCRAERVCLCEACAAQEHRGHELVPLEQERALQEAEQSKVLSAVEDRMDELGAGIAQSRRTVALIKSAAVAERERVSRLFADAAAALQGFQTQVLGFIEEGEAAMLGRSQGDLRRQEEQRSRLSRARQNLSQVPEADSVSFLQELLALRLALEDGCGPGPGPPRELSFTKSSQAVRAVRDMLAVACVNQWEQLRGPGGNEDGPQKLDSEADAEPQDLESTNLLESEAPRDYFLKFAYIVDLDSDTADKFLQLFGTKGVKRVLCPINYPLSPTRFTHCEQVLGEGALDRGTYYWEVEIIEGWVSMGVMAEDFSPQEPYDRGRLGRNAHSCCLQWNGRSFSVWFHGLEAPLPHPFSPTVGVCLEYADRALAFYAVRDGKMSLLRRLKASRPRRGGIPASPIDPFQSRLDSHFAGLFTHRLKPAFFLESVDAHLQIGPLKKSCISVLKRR
UniProt P49841: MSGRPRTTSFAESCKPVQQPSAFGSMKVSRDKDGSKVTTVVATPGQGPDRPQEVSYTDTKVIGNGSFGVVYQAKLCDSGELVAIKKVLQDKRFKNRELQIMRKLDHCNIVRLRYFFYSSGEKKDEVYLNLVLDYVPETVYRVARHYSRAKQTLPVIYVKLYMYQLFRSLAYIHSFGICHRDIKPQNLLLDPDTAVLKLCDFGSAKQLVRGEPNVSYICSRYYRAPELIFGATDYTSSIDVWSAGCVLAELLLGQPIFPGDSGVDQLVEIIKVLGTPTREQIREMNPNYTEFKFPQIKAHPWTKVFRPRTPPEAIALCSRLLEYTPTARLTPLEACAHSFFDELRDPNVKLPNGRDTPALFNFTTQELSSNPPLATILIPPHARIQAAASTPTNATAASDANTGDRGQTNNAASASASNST

The target in assay [1] is T1, Adenosine deaminase acting on RNA (ADAR), endogenous (human (endogenous in THJ-29 T and FTD-133)) (UniProt P55265).
T1 sequence: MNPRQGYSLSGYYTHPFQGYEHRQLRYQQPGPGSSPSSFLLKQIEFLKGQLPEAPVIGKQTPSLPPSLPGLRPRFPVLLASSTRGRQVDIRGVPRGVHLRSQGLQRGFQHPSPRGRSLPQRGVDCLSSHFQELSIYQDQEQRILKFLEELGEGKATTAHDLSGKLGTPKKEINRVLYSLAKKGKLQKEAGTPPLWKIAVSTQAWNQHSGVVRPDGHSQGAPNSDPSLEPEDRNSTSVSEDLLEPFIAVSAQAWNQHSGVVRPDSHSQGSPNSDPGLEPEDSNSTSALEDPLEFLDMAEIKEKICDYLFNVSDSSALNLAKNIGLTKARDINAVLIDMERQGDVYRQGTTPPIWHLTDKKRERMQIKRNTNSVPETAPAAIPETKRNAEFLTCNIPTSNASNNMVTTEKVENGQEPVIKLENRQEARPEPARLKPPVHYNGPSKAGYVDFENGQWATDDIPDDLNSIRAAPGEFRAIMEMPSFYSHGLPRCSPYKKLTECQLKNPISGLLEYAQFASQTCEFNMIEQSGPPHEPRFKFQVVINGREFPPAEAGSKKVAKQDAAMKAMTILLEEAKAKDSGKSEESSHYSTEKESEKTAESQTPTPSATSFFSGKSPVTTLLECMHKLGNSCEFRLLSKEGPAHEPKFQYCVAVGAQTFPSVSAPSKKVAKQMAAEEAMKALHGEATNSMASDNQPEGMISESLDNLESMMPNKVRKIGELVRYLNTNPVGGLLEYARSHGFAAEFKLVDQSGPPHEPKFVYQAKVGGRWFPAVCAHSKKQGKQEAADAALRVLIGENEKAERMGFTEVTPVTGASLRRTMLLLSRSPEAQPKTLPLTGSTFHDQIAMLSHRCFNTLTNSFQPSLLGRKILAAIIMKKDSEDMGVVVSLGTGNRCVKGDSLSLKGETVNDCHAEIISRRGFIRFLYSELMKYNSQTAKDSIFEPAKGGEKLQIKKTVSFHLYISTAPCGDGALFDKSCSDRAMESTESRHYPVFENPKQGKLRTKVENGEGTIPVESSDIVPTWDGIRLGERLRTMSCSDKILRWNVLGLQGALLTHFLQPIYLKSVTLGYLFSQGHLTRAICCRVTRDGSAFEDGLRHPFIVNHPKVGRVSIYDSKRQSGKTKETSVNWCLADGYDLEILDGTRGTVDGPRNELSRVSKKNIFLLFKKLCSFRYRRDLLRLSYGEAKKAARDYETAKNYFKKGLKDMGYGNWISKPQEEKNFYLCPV
Briefly: co-IP; immunoprecipitation, cells and tags not stated (Fig. 6B, E, F); for TRIM47 with ADAR also with the GSK-3β inhibitor CHIR99021 or with Myc-GSK-3β.

In assay [2] the target is Tripartite motif 47 (TRIM47), endogenous (human (endogenous in THJ-29 T and FTD-133)) (UniProt Q96LD4). The description is as above.
Assay [3] has the same target. Briefly: co-IP; endogenous TRIM47 and ADAR in THJ-29 T and FTD-133 cells; each precipitated in turn and blotted with antibodies against TRIM47 and ADAR; Co-IP kit (Thermo Fisher), antibody cross-linked to protein A/G agarose.
Assay [4] has as its target Flag-TRIM47 (UniProt Q96LD4). In words: co-IP; HA-ADAR and Flag-TRIM47 overexpressed in HEK293T cells.

Consider “Glycogen synthase kinase-3β (GSK-3β) (from UniProt P49841 1-420)”, for which the binding entry in assay [1] and in assay [2] was “binds” in each case.

B1: Adenosine deaminase acting on RNA (ADAR), endogenous (protein, UniProt P55265 1-1226)
chain: T1 sequence
As to B1, the binding entry in assay [2] and in assay [3] was “binds” throughout.

B2: HA-ADAR (protein, UniProt P55265 1-1226)
chain: T1 sequence
Consider B2, for which the binding entry in assay [4] was “binds”.

The values are drawn from publication PMC12229022.
